Results from patent US12239134B2, “Plant antimicrobial compositions including an emulsifier and/or ozone and methods of use” (Arizona Board of Regents on Behalf of The University of …, priority 2018, dated 2025).

Assay: Residual ozone in wash water, Indigo Colorimetric Method
Format: physicochemical

Compound: O=[O+][O-] [ozonized water, ozone]
- concentration of ozone in water (60 min): 0.17 ± 0.04 mg/L
- concentration of ozone in water (90 min): 0.18 ± 0.04 mg/L
- concentration of ozone in water (120 min): 0.23 ± 0.07 mg/L
- average concentration of ozone in the wash water (at the end of treatments): 0.2 mg/L
